These are yes or no findings as the source states them, for the method shown. Binding seen in cells or lysates may run through a third protein. Here binding means that the protein was enriched with, or labelled near, the bait; the list need not be complete.

Amino acid sequences for entries named in this document (tags omitted). A change or cut given only in a name is not applied to a line headed by its entry.
UniProt P35637: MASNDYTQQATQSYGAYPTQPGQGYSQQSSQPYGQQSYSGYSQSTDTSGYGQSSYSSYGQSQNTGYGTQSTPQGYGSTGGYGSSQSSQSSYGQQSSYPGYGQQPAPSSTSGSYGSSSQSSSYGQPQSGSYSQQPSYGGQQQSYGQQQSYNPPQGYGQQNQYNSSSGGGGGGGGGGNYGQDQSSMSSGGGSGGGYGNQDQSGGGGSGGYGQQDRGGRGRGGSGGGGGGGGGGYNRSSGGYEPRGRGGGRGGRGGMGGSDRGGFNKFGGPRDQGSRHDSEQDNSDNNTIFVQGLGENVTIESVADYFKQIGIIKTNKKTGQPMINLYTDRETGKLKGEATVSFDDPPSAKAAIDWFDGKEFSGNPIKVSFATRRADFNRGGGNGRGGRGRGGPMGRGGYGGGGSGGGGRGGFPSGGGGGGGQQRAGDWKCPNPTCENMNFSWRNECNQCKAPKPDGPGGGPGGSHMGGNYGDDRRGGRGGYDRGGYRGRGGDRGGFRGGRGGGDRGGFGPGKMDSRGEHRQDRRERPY
UniProt Q01844: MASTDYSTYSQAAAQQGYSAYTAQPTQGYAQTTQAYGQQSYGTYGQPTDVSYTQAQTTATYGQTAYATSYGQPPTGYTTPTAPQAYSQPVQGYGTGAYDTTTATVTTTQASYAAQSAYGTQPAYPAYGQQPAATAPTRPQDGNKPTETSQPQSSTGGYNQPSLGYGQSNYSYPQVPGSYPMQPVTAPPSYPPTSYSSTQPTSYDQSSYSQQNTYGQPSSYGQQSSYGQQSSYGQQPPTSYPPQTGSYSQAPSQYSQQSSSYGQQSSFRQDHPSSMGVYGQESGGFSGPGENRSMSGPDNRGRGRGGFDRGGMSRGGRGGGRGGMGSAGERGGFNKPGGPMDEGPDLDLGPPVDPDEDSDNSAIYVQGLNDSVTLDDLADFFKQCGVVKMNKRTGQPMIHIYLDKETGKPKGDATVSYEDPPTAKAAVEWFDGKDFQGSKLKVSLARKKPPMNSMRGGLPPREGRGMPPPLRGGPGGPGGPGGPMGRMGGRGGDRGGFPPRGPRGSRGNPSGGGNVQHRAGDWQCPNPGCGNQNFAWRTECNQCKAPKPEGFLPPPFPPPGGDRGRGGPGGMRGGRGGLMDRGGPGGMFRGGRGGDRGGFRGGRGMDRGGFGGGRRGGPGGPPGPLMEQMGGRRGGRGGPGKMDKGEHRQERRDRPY

The target of experiment [1] is LL P525L FUS-eGFP (human (endogenous in iPSC-derived neurons)) (UniProt P35637). The experiment is described as follows: affinity purification with mass spectrometry; GFP-Trap immunoprecipitation of FUS-eGFP from LL WT and LL P525L iPSC-derived neurons, label-free LC-MS/MS; non-transgenic parental line to filter out non-specific interactors.
The target of experiment [2] is LL WT FUS-eGFP (human (endogenous in iPSC-derived neurons)) (UniProt P35637). The experiment is described as above.

For the substance “Ewing sarcoma breakpoint region 1 (from UniProt Q01844 1-656)”, the binding entry in experiment [1] and in experiment [2] was “binds” in each case.

The record behind these values is paper PMC6570784.
